From article doi:10.1101/2025.06.30.662394
Where two headings read alike, the source gives them in different places. These are yes or no findings as the source states them, for the method shown. Binding seen in cells or lysates may run through a third protein. Some results given as binding are weak or reduced against the parent protein; the word gives no strength. For some assays here: Tags and fused reporters may be left off the sequences shown. Blank lines part the entries; values can stand above or below the molecule they belong to.

The chains behind the UniProt entries cited, without tags or fusion partners. Residues count along the entry.
UniProt Q9BYB0: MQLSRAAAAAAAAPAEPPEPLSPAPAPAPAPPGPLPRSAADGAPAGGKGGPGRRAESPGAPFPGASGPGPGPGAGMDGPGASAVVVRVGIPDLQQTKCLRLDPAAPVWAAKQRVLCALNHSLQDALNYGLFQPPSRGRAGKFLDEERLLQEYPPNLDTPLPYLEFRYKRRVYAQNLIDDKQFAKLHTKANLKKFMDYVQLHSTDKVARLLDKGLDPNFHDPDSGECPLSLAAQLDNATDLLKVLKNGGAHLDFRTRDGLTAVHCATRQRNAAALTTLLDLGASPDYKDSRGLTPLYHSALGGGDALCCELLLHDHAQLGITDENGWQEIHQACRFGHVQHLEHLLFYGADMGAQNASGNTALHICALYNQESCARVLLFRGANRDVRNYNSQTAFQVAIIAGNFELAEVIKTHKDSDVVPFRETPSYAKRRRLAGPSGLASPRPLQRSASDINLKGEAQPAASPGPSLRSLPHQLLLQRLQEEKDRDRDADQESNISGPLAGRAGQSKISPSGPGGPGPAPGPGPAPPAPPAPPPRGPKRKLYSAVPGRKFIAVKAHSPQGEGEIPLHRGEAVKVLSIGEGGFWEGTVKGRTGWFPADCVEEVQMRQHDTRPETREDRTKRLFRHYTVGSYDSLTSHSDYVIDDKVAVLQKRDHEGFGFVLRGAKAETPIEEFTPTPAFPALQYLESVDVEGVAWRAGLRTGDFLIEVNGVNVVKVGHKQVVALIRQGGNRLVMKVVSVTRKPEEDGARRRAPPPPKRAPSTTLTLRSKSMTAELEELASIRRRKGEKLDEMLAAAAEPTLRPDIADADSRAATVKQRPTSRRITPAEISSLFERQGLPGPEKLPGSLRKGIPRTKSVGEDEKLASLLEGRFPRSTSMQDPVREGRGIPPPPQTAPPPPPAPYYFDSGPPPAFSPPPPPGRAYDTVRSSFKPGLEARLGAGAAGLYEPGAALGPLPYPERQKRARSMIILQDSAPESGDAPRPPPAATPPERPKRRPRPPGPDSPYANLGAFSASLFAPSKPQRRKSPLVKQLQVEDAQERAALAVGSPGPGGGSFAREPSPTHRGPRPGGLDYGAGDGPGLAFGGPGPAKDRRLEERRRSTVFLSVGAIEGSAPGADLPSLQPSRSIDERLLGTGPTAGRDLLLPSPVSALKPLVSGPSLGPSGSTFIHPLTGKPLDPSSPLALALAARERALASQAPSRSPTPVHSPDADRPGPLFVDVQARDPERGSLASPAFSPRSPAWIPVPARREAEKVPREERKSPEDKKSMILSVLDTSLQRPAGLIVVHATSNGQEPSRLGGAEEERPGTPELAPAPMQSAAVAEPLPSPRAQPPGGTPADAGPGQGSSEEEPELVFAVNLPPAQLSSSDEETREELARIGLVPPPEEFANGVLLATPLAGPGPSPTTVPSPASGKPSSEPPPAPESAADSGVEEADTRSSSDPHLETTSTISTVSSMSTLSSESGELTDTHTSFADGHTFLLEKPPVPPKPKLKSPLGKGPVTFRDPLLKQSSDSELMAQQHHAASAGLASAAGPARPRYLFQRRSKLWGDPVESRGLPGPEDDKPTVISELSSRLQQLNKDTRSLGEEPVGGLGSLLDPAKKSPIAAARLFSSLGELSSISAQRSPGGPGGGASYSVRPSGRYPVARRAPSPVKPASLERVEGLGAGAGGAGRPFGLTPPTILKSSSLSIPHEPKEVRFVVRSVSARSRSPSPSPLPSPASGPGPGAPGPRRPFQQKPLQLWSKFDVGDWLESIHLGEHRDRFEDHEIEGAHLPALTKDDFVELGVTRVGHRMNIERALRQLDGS
UniProt P37023, residues 22-503: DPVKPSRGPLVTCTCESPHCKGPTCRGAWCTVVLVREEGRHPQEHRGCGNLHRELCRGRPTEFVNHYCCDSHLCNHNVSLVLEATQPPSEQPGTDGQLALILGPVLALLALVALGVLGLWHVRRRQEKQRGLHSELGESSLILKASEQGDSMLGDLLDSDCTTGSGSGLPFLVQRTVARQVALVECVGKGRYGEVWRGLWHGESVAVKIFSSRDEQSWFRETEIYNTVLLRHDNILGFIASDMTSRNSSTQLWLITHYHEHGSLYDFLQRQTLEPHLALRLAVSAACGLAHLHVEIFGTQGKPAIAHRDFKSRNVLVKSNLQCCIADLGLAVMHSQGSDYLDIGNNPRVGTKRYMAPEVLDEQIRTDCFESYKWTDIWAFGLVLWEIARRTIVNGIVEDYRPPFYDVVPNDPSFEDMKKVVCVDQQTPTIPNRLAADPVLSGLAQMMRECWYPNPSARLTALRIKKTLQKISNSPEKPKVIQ

Tests used:
Experiment in all cases: co-IP
[1] = target: T1, Endoglin (endogenous) (human (endogenous in HUVECs)) (UniProt P17813)
T1 sequence: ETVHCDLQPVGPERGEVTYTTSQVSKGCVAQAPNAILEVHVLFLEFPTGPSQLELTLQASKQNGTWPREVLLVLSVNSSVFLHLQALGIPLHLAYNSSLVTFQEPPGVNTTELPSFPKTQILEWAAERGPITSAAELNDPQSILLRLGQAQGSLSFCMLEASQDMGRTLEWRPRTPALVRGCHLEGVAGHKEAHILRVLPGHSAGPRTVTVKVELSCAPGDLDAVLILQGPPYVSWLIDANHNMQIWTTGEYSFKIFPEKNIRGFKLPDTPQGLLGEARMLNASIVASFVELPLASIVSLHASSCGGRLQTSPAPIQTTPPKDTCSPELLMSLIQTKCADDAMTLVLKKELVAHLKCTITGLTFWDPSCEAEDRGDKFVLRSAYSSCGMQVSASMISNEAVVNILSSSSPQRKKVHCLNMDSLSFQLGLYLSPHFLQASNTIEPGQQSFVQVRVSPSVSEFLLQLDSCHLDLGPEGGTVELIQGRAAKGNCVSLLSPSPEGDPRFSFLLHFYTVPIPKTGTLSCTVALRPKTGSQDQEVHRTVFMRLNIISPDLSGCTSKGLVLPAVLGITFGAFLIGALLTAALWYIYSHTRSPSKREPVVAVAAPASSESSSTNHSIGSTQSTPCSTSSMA

[2] = target: T2, Lphn2 with C-terminal mClover3 (wild-type, full-length Latrophilin-2) (UniProt O95490)
T2 sequence: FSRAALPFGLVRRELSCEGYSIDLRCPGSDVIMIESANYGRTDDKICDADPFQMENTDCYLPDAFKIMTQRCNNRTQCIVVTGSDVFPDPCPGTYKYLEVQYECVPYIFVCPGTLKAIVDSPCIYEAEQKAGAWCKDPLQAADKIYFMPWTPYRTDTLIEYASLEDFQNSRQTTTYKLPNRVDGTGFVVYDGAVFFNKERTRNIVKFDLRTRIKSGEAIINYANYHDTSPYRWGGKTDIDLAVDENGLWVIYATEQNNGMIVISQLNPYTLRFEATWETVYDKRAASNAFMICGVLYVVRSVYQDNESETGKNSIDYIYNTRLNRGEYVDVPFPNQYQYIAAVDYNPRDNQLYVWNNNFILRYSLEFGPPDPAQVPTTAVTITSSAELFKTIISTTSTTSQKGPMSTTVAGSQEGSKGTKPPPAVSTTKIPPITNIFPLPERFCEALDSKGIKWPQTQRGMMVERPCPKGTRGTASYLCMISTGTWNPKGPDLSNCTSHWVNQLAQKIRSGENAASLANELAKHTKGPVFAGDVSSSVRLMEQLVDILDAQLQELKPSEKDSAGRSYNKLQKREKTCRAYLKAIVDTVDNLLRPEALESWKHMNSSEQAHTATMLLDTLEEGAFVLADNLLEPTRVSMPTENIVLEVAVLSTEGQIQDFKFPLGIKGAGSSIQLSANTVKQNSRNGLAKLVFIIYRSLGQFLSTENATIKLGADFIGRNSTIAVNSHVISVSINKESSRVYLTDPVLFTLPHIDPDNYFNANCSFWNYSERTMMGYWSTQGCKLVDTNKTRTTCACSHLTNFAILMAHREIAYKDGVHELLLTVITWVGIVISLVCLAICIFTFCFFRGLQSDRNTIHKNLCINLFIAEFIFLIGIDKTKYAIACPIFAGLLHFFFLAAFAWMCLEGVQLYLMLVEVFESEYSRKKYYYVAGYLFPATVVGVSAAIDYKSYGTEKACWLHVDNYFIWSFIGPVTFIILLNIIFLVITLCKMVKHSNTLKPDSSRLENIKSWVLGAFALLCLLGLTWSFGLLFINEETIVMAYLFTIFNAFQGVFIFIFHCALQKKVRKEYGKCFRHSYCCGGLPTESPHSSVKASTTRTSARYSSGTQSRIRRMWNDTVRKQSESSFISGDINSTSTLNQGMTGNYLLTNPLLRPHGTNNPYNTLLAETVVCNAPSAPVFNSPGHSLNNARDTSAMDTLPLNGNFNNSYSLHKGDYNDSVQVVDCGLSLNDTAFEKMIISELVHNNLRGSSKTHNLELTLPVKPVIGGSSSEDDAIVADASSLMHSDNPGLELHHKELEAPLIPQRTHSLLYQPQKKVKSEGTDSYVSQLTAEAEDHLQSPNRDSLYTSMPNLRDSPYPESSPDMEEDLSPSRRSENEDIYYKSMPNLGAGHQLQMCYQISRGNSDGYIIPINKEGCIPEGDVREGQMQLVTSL

GFP-tagged Shank3 = GFP-tagged Shank3 (UniProt Q9BYB0)
[3] = target: T2, Lphn2 with C-terminal mClover3 (wild-type, full-length Latrophilin-2); remark: listed apart in the source

binding [1]: binds
binding [2]: binds
Molecule: Activin receptor-like kinase 1 (ALK1, endogenous) (from UniProt P37023 22-503)

binding (GFP-tagged Shank3): binds
B1: flag-tagged Lphn2 (Lphn2-Flag) (receptor, UniProt O95490 26-1459)
chain: T2 sequence

binding (GFP-tagged Shank3): binds
binding [3]: binds
B2: Endoglin (endogenous) (receptor, UniProt P17813 26-658)
chain: T1 sequence
